From patent publication US20260079169A1, “VOLATILE ORGANIC COMPOUNDS AS MARKERS FOR CELLULAR COMMUNICATION” (Technion Research and Development Foundation Limited, priority 2020, published 2026)
No dose or concentration is given here for some results.

Legend:
[1] = test system: different-cell pairs of BEAS-2B, A549, H1299, H1975 without physical contact under a mutual headspace; experiment: VOCs headspace analysis (ITEX GC-MS) of different-cell pair co-culture headspace groups (Format-3), bulk cell samples; type: cell-based, human; set-up: key to Category (VOC increased or decreased relative to the control): ↑: Increased; ↓: decreased; ↑*: <0.01; ↑**: <0.001; details: for VOC area under curve (AUC) normalized by STD AUC, B + C / VOC area under curve (AUC) normalized by STD AUC, B + D / VOC area under curve (AUC) normalized by STD AUC, A + B / VOC area under curve (AUC) normalized by STD AUC, A + C / VOC area under curve (AUC) normalized by STD AUC, A + D / VOC area under curve (AUC) normalized by STD AUC, C + D: bulk 1 × 10^4 cell; for VOC area under curve (AUC) normalized by STD AUC, B + C: A549 + H1299; for VOC area under curve (AUC) normalized by STD AUC, B + D: A549 + H1975; for VOC area under curve (AUC) normalized by STD AUC, A + B: BEAS-2B + A549; for VOC area under curve (AUC) normalized by STD AUC, A + C: BEAS-2B + H1299; for VOC area under curve (AUC) normalized by STD AUC, A + D: BEAS-2B + H1975; for VOC area under curve (AUC) normalized by STD AUC, C + D: H1299 + H1975; for Category (VOC increased or decreased relative to the control): different-cell pair co-culture headspace (Format-3), averaged peak area (n = 3)
[2] = test system: A549, H1299, H1975 human lung cancer lines and BEAS-2B normal cell line, each cultured alone; experiment: VOCs headspace analysis (ITEX GC-MS) of mono-culture groups (Format-1), bulk cell samples 1×10^4 cells; type: cell-based; set-up: key to Category (VOC increased or decreased relative to the control): ↑: Increased; ↓: decreased; ↑*: <0.01; ↑**: <0.001; details: for VOC area under curve (AUC) normalized by STD AUC, A / VOC area under curve (AUC) normalized by STD AUC, B / VOC area under curve (AUC) normalized by STD AUC, C / VOC area under curve (AUC) normalized by STD AUC, D: bulk 1 × 10^4 cell; for VOC area under curve (AUC) normalized by STD AUC, A: A: BEAS-2B mono-culture headspace; for VOC area under curve (AUC) normalized by STD AUC, B: B: A549 mono-culture headspace; for VOC area under curve (AUC) normalized by STD AUC, C: C: H1299 mono-culture headspace; for VOC area under curve (AUC) normalized by STD AUC, D: D: H1975 mono-culture headspace; for Category (VOC increased or decreased relative to the control): mono-culture groups (Format-1), averaged peak area (n = 3)

Question: How did the “VOC area under curve (AUC) normalized by STD AUC, B + C” value [1] turn out when `CCCOC(=O)c1cc(C(F)(F)F)ccc1F` [VOC101] was run?
Answer: 2.071

Question: What about the “VOC area under curve (AUC) normalized by STD AUC, B + D” value [1] of the same compound?
Answer: 0

Question: What about the “VOC area under curve (AUC) normalized by STD AUC, A + B” value [1] of the same compound?
Answer: 0

Question: What about the “VOC area under curve (AUC) normalized by STD AUC, A + C” value [1] of the same compound?
Answer: 2.164

Question: What about the “VOC area under curve (AUC) normalized by STD AUC, A + D” value [1] of the same compound?
Answer: 0

Question: What about the “VOC area under curve (AUC) normalized by STD AUC, C + D” value [1] of the same compound?
Answer: 2.133

Question: And the “VOC area under curve (AUC) normalized by STD AUC, A” value [2]?
Answer: 0

Question: What about the “VOC area under curve (AUC) normalized by STD AUC, B” value [2] of the same compound?
Answer: 1

Question: And the “VOC area under curve (AUC) normalized by STD AUC, C” value [2]?
Answer: 6.0138

Question: And the “VOC area under curve (AUC) normalized by STD AUC, D” value [2]?
Answer: 0

Question: For `CC=O` [VOC102], which “VOC area under curve (AUC) normalized by STD AUC, B + C” value [1] is on record?
Answer: 0

Question: And the “VOC area under curve (AUC) normalized by STD AUC, B + D” value [1]?
Answer: 0

Question: And the “VOC area under curve (AUC) normalized by STD AUC, A + B” value [1]?
Answer: 2.115

Question: What about the “VOC area under curve (AUC) normalized by STD AUC, A + C” value [1] of the same compound?
Answer: 9.268

Question: And the “VOC area under curve (AUC) normalized by STD AUC, A + D” value [1]?
Answer: 3.917

Question: What about the “VOC area under curve (AUC) normalized by STD AUC, C + D” value [1] of the same compound?
Answer: 2.629

Question: What about the “VOC area under curve (AUC) normalized by STD AUC, A” value [2] of the same compound?
Answer: 7.237

Question: And the “VOC area under curve (AUC) normalized by STD AUC, B” value [2]?
Answer: 0

Question: What about the “VOC area under curve (AUC) normalized by STD AUC, C” value [2] of the same compound?
Answer: 4.0608

Question: For `CC(=O)CCCCC(Cl)Cl` [VOC103], which “VOC area under curve (AUC) normalized by STD AUC, B + C” value [1] is on record?
Answer: 0

Question: And the “VOC area under curve (AUC) normalized by STD AUC, B + D” value [1]?
Answer: 0

Question: And the “VOC area under curve (AUC) normalized by STD AUC, A + B” value [1]?
Answer: 3.917

Question: And the “VOC area under curve (AUC) normalized by STD AUC, A + C” value [1]?
Answer: 3.297

Question: And the “VOC area under curve (AUC) normalized by STD AUC, A + D” value [1]?
Answer: 8.44

Question: What about the “VOC area under curve (AUC) normalized by STD AUC, A” value [2] of the same compound?
Answer: 4.213

Question: What about the “VOC area under curve (AUC) normalized by STD AUC, B” value [2] of the same compound?
Answer: 0

Question: What about the “VOC area under curve (AUC) normalized by STD AUC, C” value [2] of the same compound?
Answer: 0

Question: And the “VOC area under curve (AUC) normalized by STD AUC, D” value [2]?
Answer: 4.11

Question: What does the source list for `CC(=O)c1ccc2c(C)cc(C)cc(C)c1-2` [VOC104]?
Answer: VOC area under curve (AUC) normalized by STD AUC, B + C [1]: 5.011; VOC area under curve (AUC) normalized by STD AUC, B + D [1]: 0; VOC area under curve (AUC) normalized by STD AUC, A + B [1]: 1.887; VOC area under curve (AUC) normalized by STD AUC, A + C [1]: 2.721; VOC area under curve (AUC) normalized by STD AUC, A + D [1]: 0; VOC area under curve (AUC) normalized by STD AUC, C + D [1]: 0; VOC area under curve (AUC) normalized by STD AUC, A [2]: 0; VOC area under curve (AUC) normalized by STD AUC, B [2]: 4.735; VOC area under curve (AUC) normalized by STD AUC, C [2]: 6.4451; VOC area under curve (AUC) normalized by STD AUC, D [2]: 0

Question: For `Cc1ccccc1C` [o-Xylene], which “Category (VOC increased or decreased relative to the control)” value ([1]; 72 h) is on record?
Answer: ↑

Question: And the “Category (VOC increased or decreased relative to the control)” value ([2]; 48 h incubation)?
Answer: ↓

Question: How did the “Category (VOC increased or decreased relative to the control)” value ([1]; 24 h) turn out when `Cc1ccc(C=O)cc1` [p-Tolualdehyde] was run?
Answer: ↑* (↑*: <0.01)

Question: And the “Category (VOC increased or decreased relative to the control)” value ([2]; 72 h incubation)?
Answer: ↑* (↑*: <0.01)

Question: For `C/C=C/C(C)C` [trans-4-Methyl-2-pentene], which “Category (VOC increased or decreased relative to the control)” value ([1]; 72 h) is on record?
Answer: ↑* (↑*: <0.01)

Question: What about the “Category (VOC increased or decreased relative to the control)” value ([2]; 48 h incubation) of the same compound?
Answer: ↑
